These are yes or no findings as the source states them, for the method shown. Some binding calls cover weakened binding; strength is not graded here.
Biological target: murine galanin (mature, processed form) (murine) (UniProt P47212)
Assay: epitope mapping

Sequences of proteins named here, by UniProt entry; tags and fusion partners are left off. Residues count along the entry.
UniProt P47212, residues 33-61: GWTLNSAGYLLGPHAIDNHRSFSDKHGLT

binding: binds
B1: murine monoclonal antibody 2H9 (antibody, mouse IgG1, V domains shown)
VH: EIQLQQSEAELVKPGASVRLSCATSGFNIKDYYIHWVKQTTEQGLEWIGRIDPEDGETEYAPKFQGKATIAADTSSNTAYLLLNSLSSEDTAVYYCTRGYASWGQGTTLTVSS
VL: DVLMTQTPLSLSVSLGDQASISCRSSQSFVHSDGNTYLEWYLQKSGQSPKLLIYKVSNRFSGVPDRFSGSGSGTDFTLKINRVEAEDLGVYYCFQGSHVPYTFGGGTKLEIKR

Reference: US20050152896A1
